According to US20180021456A1, “SELF-ASSEMBLED TARGETED INCLUSION COMPLEXES FOR DRUG DELIVERY” (UNIVERSITY OF SOUTH FLORIDA, priority 2015, published 2018):
At least one structure is not confirmed: it was looked up by name or label, or the drawing left a doubt. Some of these results come from one statement about several compounds together.

Test system: MCF-7 cells
Experiment: Competition assay of estrone and tamoxifen with CDE1-Ada-DOX uptake in MCF-7 cells (flow cytometry)
Type: cell-based, human
Protocol: FIG. 17 is a bar graph of the fluorescence intensity for competition assay of CDE1-Ada-DOX at 2 μM in MCF-7 cells in the presence of estrone and tamoxifen at 0.1-10 μM. The results are represented as means±SD from triplicate determinations.
Flow cytometer: In all cases, unless otherwise indicated, the flow cytometric analysis was performed on a FACS (Becton Dickinson Immunocytometry Systems, San Jose, Calif.) by counting 10,000 events.
Moreover, the competition assay of estrone and tamoxifen with CDE1-Ada-DOX in MCF-7 cells was conducted and is shown in FIG. 17. […] Moreover, the ER antagonist-tamoxifen, which is the most prescribed medicine to treat hormone receptor-positive breast cancer, is capable of binding to the estrogen receptor but blocks its activity. […] While for both estrone and tamoxifen, inhibition saturated at concentrations higher than 5 μM. […] Addition of an Ada-DOX guest led to the decomplexation of the estrogen moiety. […] The results are consistent and replicable with the TEM/SEM observations.

C[C@]12CC[C@@H]3c4ccc(O)cc4CC[C@H]3[C@@H]1CCC2=O [estrone]
concentration at which inhibition of CDE1-Ada-DOX uptake saturated: higher than 5 μM | inhibition of CDE1-Ada-DOX uptake (competitor at 5-50 μM, CDE1-Ada-DOX 2 μM): inhibited
